Experimental data taken from US20240335395A1, “COMPOSITIONS AND METHODS FOR PREVENTING AND/OR TREATING DISEASE ASSOCIATED WITH IL-23 EXPRESSION” (ALLSPIM, priority 2021, published 2024).
For at least one compound, name, drawing or mass did not settle the structure. Some entries share one result that the patent states for a list of compounds.

Tests used:
[1] = test system: IL-17/IL-23 and TNF signature cytokines and chemokines; experiment: Release of IL-17/IL-23 and TNF signature cytokines and chemokines into supernatant of LPS-stimulated THP-1 cells (ELISA); type: cell-based, human; conditions: 24 h
Procedure: (§1) Sample Collection and Preparation. THP-1 cells, a human leukemia monocyte-derived cell line, have been widely used as a model to study the modulation of the immune response and the function of monocytes and monocyte-derived macrophages. Here, lipopolysaccharide (LPS)-stimulated THP-1 cells were used as a model to study the cytokine storm in vitro (Chanput et al., 2014). THP-1 cells (purchased from American Type Culture Collection, Rockville, MD) were grown in RPMI 1640 culture medium (Gibco) supplemented with 10% fetal bovine serum (FBS) (Gibco, UK), 0.05 mM 2-mercaptoethanol, and 1% penicillin/streptomycin (Invitrogen) at 37° C. in 5% CO2 in a humidified incubator. Cultured cells were plated into culture plates in appropriate volumes with a cell density of 5×10^5 cells/ml. 2,4-D was purchased from Wuhan ChemFaces Biochemical Co., Ltd (Hubei, China) and tested for cytotoxicity in THP-1 cells overnight using a commercial MTT Cell Proliferation and Cytotoxicity Assay Kit (Beyotime, Shanghai, China). THP-1 cells were treated with PBS alone as negative control (NTC), with 10 ng/mL LPS alone (Sigma, St. Louis, MO) as the model of cytokine storm in vitro (MODEL), or with 10 ng/mL LPS and 5 μM or 20 μM 2,4-D, 5 μM or 20 μM rapamycin (RPM) (Sigma), or 20ng/μL or 80 μg/mL dexamethasone (DEX) (Sigma). THP-1 cells were harvested at different time points ranging from 0.5-24 h to investigate gene expression kinetics, while cell-free culture supernatants were collected and stored at −80° C. to measure time-dependent cytokine secretion as described. Cell cultures were performed in quadruplicate wells for each experiment.
ELISA. THP-1 culture supernatants were collected at 24 hours. IL-23 Human Uncoated ELISA Kit (88-7237-86) was purchased from ThermoFisher (ThermoFisher, Vienna, Austria). Human IL-1β, IL-6, IL-10, TNF-α, MCP-1, and MIP-1alpha ELISA kits were purchased from Mabtech (Stockholm, Sweden). Culture supernatants were measured according to the manufacturer's instructions. A Varioskan LUX microplate reader (Thermo Fisher, USA) was used for the assay and 4-parameter logistic regression was used for data analysis. Supernatants were taken from quadruplicate wells for each sample and results were averaged. Data are expressed as mean±SD.
Statistical analysis. Statistical analysis was performed using Student's t-test (paired 2-sample testing), with * corresponding to a p-value<0.05 and ** corresponding to a p-value<0.01.

[2] = test system: IL-17/IL-23 and TNF signaling pathway-associated cytokine genes and chemokine genes; experiment: Transcription of IL-17/IL-23 and TNF signature genes in LPS-stimulated THP-1 cells (qPCR); type: cell-based, human; conditions: 2 h
Procedure: as §1
Real-Time Quantitative PCR. Real-time quantitative PCR was performed in triplicate using the TB Green qPCR master mix (Takara Biomedical Technology Co., Ltd, Dalian, China) on an ABI 7500 Real-Time PCR System (Thermo, USA). […] The ΔΔCT method was used to quantify relative mRNA levels as described above in Example 1 (Applied Biosystems). Data are expressed as mean±SD. […]

[3] = test system: laser-induced choroidal neovascularization (CNV); experiment: Laser-induced CNV in rats, fluorescein angiography leakage grading; type: in vivo, rat; conditions: 14 days, intravitreous injection, Dunn's multiple comparison
Procedure: Animals. All experiments were performed in accordance with the European Communities Council Directive 86/609/EEC and approved by local ethical committees (#2541-2015110210279792 v3). Six- to eight-week-old male Long Evans rats from the Janvier Breeding Center (Le Genest-Saint-Isle, France) were used to create a rat model of choroidal neovascularization (CNV) used as a model of human wet macular degeneration.
Laser-induced CNV. After anesthesia and dilation of the pupils, coverslips were positioned on the cornea as a contact glass. For rats, six or eight burns were performed 2 to 3 optic disc diameters away from the optic nerve with an Argon laser (532 nm) mounted on a slit lamp (175 mW, 0.1 s and 50 μm). Both eyes of animals received laser induction. […]
Fluorescein angiography (FA). […] Early and late phase angiograms were recorded 1-3 and 5-7 min respectively after fluorescein injection. […] Angiographic scores were established by 2 blinded observers according to the following criteria: grade 0, no hyper-fluorescence; grade 1, slight hyper-fluorescence with no increase in intensity nor in size; grade 2, hyper-fluorescence increasing in intensity but not in size; grade 3, hyper-fluorescence increasing both in intensity and size; grade 4, hyper-fluorescence size increase more than 2-diameter of the initial laser burn.

IL-23 = IL-23 production (ELISA of supernatant) in LPS-stimulated THP-1 cell culture, Examples 1 and 8; type: cell-based, human; conditions: LPS-stimulated THP-1, Example 8
Procedure: The THP-1 cell line (TIB-202) was obtained from the American Type Culture Collection (ATCC, USA), grown in RPMI 1640 culture medium (Gibco) supplemented with 10% fetal bovine serum (Gibco, UK), 50 U/mL penicillin-streptomycin (Gibco), and 0.05 mM 2-Mercaptoethanol (Gibco). Cultured cells were plated into culture plates in appropriate volumes with a cell density of 500,000 cells/mL.
PCR was performed in duplicate using SYBR Green qPCR master mix (Takara Biomedical Technology Co., Ltd, Dalian, China) on an ABI 7500 Real-Time PCR System (Thermo, USA). The cycling program was as follows: denaturation at 95° C. for 15 s, 40 cycles of 95° C. for 15 s and extension at 60° C. for 60 s, followed by melt curve generation. The ΔΔCT method was used to quantify relative mRNA levels as described in User Bulletin #2 for the ABI PRISM 7700 Sequence Detection System (Applied Biosystems, 2001). […] 24 hours after culture and treatments, supernatants were collected and IL-23 levels measured using the IL-23 Human Uncoated ELISA Kit (ThermoFisher Scientific Inc., USA) according to the manufacturer's instructions. A Varioskan LUX microplate reader (Thermo Fisher, USA) was used for the assay and 4-parameter logistic regression was used for data analysis. […]

For `C[C@@H]1C[C@H]2[C@@H]3CCC4=CC(=O)C=C[C@]4(C)[C@@]3(F)[C@@H](O)C[C@]2(C)[C@@]1(O)C(=O)CO` [DEX, dexamethasone], the “suppression of release of IL-1ß, IL-6 and IL-23” value ([1]; 80 ng/ml) was over 90%, the “release of LIF and TNF-alpha” value ([1]; DEX) was “remained unchanged” and the “suppression of transcription of IL-17/IL-23 and TNF signatures” value ([2]; 2,4-D 5-20 μM, DEX 20-80 ng/ml) was “did not affect”. For the same compound, the “transcription of Ccl3/Mip1alpha” value ([2]; DEX 20-80 ng/ml) was “slight down-regulation”.
In the case of `CC1(C)O[C@@H]2C[C@H]3[C@@H]4CCC5=CC(=O)C=C[C@]5(C)[C@@]4(F)[C@@H](O)C[C@]3(C)[C@]2(C(=O)CO)O1` [TA, triamcinolone acetonide, reference compound], the “grading score of impacts compared to vehicle” value [3] is reported as “ns”.
In the case of `CO[C@H]1C[C@@H]2CC[C@@H](C)[C@@](O)(O2)C(=O)C(=O)N2CCCC[C@H]2C(=O)O[C@H]([C@H](C)C[C@@H]2CC[C@@H](O)[C@H](OC)C2)CC(=O)[C@H](C)/C=C(\C)[C@@H](O)[C@@H](OC)C(=O)[C@H](C)C[C@H](C)/C=C/C=C/C=C/1C` [Rapamycin, rapamycin], the “change of IL-23 production/release in supernatant” value (IL-23) is reported as “no significant change”, the “release of LIF, IL-6 and IL-23” value ([1]; RPM) is reported as “remained unchanged” and the “inhibition of transcription of Lif, Il23p19, Cox2, Ccl20, Cxcl1, Cxcl2” value ([2]; RPM 5-20 μM) is reported as “not”.
With `COc1cc(O)c(OC)c(O)c1C(=O)/C=C/c1ccccc1` [2,4-D, 2′,4′-dihydroxy-3′,6′-dimethoxychalcone] the “suppression of release of IL-17/IL-23 and TNF signature cytokines and chemokines” value ([1]; 2,4-D 5-20 μM) was over 90%.
